The list shows a part of the results. Many values rest on one well or one pass, so single values are uncertain.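 Imaging used 1,536-well plates; nuclei positive for cleaved PARP by antibody were divided by total DNA-stained nuclei to yield the apoptosis fraction. Doses for screening kept most cells viable, and cell lines differ markedly in resting and induced cleaved-PARP levels.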
Key:
Experiment in all cases: cleaved PARP positive nuclei fraction relative to DMSO control; melanoma cells; higher = more apoptosis
Conditions in all cases: library dose: low library concentration; 72 h
[1] = system: MZ2-MEL
[2] = system: MeWo
[3] = system: RPMI7951
[4] = system: RVH-421
[5] = system: SkMel28
[6] = system: SkMel2
[7] = system: SkMel30
[8] = system: SkMel5
[9] = system: UACC257
[10] = system: UACC62
[11] = system: WM115
[12] = system: WM1716
[13] = system: WM1745
[14] = system: WM3526
[15] = system: WM3619
[16] = system: WM451Lu

Structure (SMILES) | cleaved PARP positive nuclei fraction [1] | cleaved PARP positive nuclei fraction [2] | cleaved PARP positive nuclei fraction [3] | cleaved PARP positive nuclei fraction [4] | cleaved PARP positive nuclei fraction [5] | cleaved PARP positive nuclei fraction [6] | cleaved PARP positive nuclei fraction [7] | cleaved PARP positive nuclei fraction [8] | cleaved PARP positive nuclei fraction [9] | cleaved PARP positive nuclei fraction [10] | cleaved PARP positive nuclei fraction [11] | cleaved PARP positive nuclei fraction [12] | cleaved PARP positive nuclei fraction [13] | cleaved PARP positive nuclei fraction [14] | cleaved PARP positive nuclei fraction [15] | cleaved PARP positive nuclei fraction [16]
C=CCNC1=C2C[C@@H](C)C[C@H](OC)[C@H](O)[C@@H](C)/C=C(\C)[C@H](OC(N)=O)[C@@H](OC)/C=C\C=C(/C)C(=O)NC(=CC1=O)C2=O [Tanespimycin] + Cc1ccc(NC(=O)c2cccc(N(C)C)c2)cc1NC(=O)c1ccc(O)cc1 [ZM336372] (first compound 0.002 µM, partner dose 2 µM) | 76% | 45% | 211% | 45% | 346% | 96.9% | 68.3% | 341% | 82.7% | 70.1% | 47.8% | 64.2% | 98.7% | 102% | 84% | 152%
Clc1ccc(Nc2nnc(Cc3ccncc3)c3ccccc23)cc1 [vatalanib] + N#Cc1c(O)c2c(-c3ccc(-c4ccccc4O)cc3)csc2[nH]c1=O [A769662] (first compound 2 µM, partner dose 2 µM) | 86.7% | 109% | 240% | 54.6% | 62.2% | 96.9% | 355% | 78.1% | 24.2% | 60.9% | 204% | 167% | 97.5% | 79.7% | 108% | 403%
COCC[n+]1c2c(n(Cc3cnccn3)c1C)C(=O)c1ccccc1C2=O + CC1(C)NC(=O)N(c2ccc([N+](=O)[O-])c(C(F)(F)F)c2)C1=O [nilutamide] (first compound 0.0004 µM, partner dose 1 µM) | 629% | 108% | 90.2% | 38.1% | 173% | 176% | 77% | 533% | 152% | 212% | 199% | 83.6% | 193% | 68.3% | 117% | 222%
Cn1c(Nc2ccc(C(F)(F)F)cc2)nc2cc(Oc3ccnc(-c4ncc(C(F)(F)F)[nH]4)c3)ccc21 + CN(C)S(=O)(=O)c1ccc2c(c1)/C(=C/c1cc3c([nH]1)CCCC3)C(=O)N2 [SU6656] (first compound 0.08 µM, partner dose 0.4 µM) | 222% | 198% | 163% | 365% | 116% | 126% | 159% | 103% | 543% | 228% | 1150% | 213% | 144% | 121% | 143% | 75.2%
C=CCNC1=C2C[C@@H](C)C[C@H](OC)[C@H](O)[C@@H](C)/C=C(\C)[C@H](OC(N)=O)[C@@H](OC)/C=C\C=C(/C)C(=O)NC(=CC1=O)C2=O [Tanespimycin] + CO[C@@H]1[C@H](N(C)C(=O)c2ccccc2)C[C@H]2O[C@]1(C)n1c3ccccc3c3c4c(c5c6ccccc6n2c5c31)C(=O)NC4 [Midostaurin] (first compound 0.002 µM, partner dose 0.08 µM) | 114% | 264% | 93.9% | 66.6% | 56.1% | 155% | 69.8% | 79.6% | 30.9% | 75.8% | 93.3% | 31.8% | 134% | 168% | 93.7% | 140%
CC(C)(C)c1cnc(CSc2cnc(NC(=O)C3CCNCC3)s2)o1 + OCCn1cc(-c2cnc3nnn(Cc4ccc5ncccc5c4)c3n2)cn1 [PF04217903] (first compound 0.01 µM, partner dose 1 µM) | 237% | 111% | 108% | 77.9% | 143% | 127% | 62.4% | 133% | 65.5% | 26.4% | 70.2% | 73.4% | 95.9% | 176% | 94% | 157%
C#Cc1cccc(Nc2ncnc3cc(OCCOC)c(OCCOC)cc23)c1 [erlotinib] + CO[C@@H]1[C@H](N(C)C(=O)c2ccccc2)C[C@H]2O[C@]1(C)n1c3ccccc3c3c4c(c5c6ccccc6n2c5c31)C(=O)NC4 [Midostaurin] (first compound 0.8 µM, partner dose 0.08 µM) | 86.8% | 201% | 75.4% | 113% | 59.3% | 122% | 74.3% | 138% | 47.2% | 34.6% | 256% | 156% | 139% | 239% | 127% | 98.7%
Clc1ccc(Nc2nnc(Cc3ccncc3)c3ccccc23)cc1 [vatalanib] + OCCn1cc(-c2cnc3nnn(Cc4ccc5ncccc5c4)c3n2)cn1 [PF04217903] (first compound 2 µM, partner dose 1 µM) | 102% | 110% | 96.5% | 94.2% | 162% | 125% | 120% | 104% | 40.7% | 46.3% | 47.7% | 19.4% | 71.7% | 141% | 167% | 166%
O=C(CCCCCCC(=O)Nc1ccccc1)NO [vorinostat] + C[C@@H]1CCN(C(=O)CC#N)C[C@@H]1N(C)c1ncnc2[nH]ccc12 [CP690550] (first compound 0.08 µM, partner dose 1 µM) | 190% | 111% | 59.8% | 44.2% | 247% | 115% | 103% | 44.3% | 59.6% | 91.3% | 35.9% | 92.1% | 86.5% | 327% | 102% | 195%
Clc1ccc(Nc2nnc(Cc3ccncc3)c3ccccc23)cc1 [vatalanib] + Cc1cc(N2CCOCC2)cc2[nH]c(-c3c(NC[C@@H](O)c4cccc(Cl)c4)cc[nH]c3=O)nc12 [BMS536924] (first compound 2 µM, partner dose 0.2 µM) | 86% | 156% | 47.6% | 46.6% | 57.5% | 94% | 31% | 99.3% | 55.2% | 113% | 15.8% | 148% | 106% | 60% | 103% | 61.1%
Nc1cccc2c1CN(C1CCC(=O)NC1=O)C2=O (stereo not drawn) [lenalidomide] + CC(C)(C)c1cnc(CSc2cnc(NC(=O)C3CCNCC3)s2)o1 [SNS-032] (first compound 1 µM, partner dose 0.01 µM) | 109% | 90.4% | 100% | 108% | 96.1% | 137% | 55.7% | 41.3% | 33.5% | 111% | 48.9% | 104% | 108% | 51.5% | 106% | 100%
C=CCNC1=C2C[C@@H](C)C[C@H](OC)[C@H](O)[C@@H](C)/C=C(\C)[C@H](OC(N)=O)[C@@H](OC)/C=C\C=C(/C)C(=O)NC(=CC1=O)C2=O [Tanespimycin] + CCc1ccc(CCOc2ccc(CC3SC(=O)NC3=O)cc2)nc1 [pioglitazone] (first compound 0.002 µM, partner dose 2 µM) | 59.5% | 80.3% | 312% | 94.6% | 161% | 37.9% | 120% | 237% | 79.2% | 53.5% | 57.4% | 228% | 89.8% | 73.5% | 92.6% | 188%
C[C@]1(c2nc3c(C(N)=O)cccc3[nH]2)CCCN1 [Veliparib] + Cn1cncc1[C@@](N)(c1ccc(Cl)cc1)c1ccc2c(c1)c(-c1cccc(Cl)c1)cc(=O)n2C [tipifarnib] (first compound 1.4 µM, partner dose 0.01 µM) | 89.4% | 109% | 90.2% | 251% | 72.3% | 168% | 78.9% | 224% | 205% | 177% | 367% | 70.4% | 119% | 66.5% | 90% | 120%
OCc1c[nH]c2ccccc12 [Indole-3-carbinol] + COc1ccc(COc2ccc(Cc3cnc(N)nc3N)cc2OC)cc1 [GW2580] (first compound 0.8 µM, partner dose 1 µM) | 75.7% | 60.6% | 91.9% | 122% | 58.2% | 61.5% | 595% | 75.1% | 164% | 75.8% | 205% | 211% | 81.3% | 64.2% | 86.9% | 36%
COc1cc(Nc2ncc(F)c(Nc3ccc4c(n3)NC(=O)C(C)(C)O4)n2)cc(OC)c1OC [Tamatinib] + O=C(Nc1cccc(Cl)c1)Nc1ncc(CCNc2ncnc3ccsc23)s1 [SNS314] (first compound 0.4 µM, partner dose 0.0008 µM) | 125% | 81.8% | 30.7% | 108% | 53.7% | 159% | 164% | 90.9% | 209% | 186% | 132% | 58.2% | 156% | 68.7% | 109% | 60.9%
COc1cc(Nc2ncc(F)c(Nc3ccc4c(n3)NC(=O)C(C)(C)O4)n2)cc(OC)c1OC [Tamatinib] + Cc1cc(N2CCOCC2)cc2[nH]c(-c3c(NC[C@@H](O)c4cccc(Cl)c4)cc[nH]c3=O)nc12 [BMS536924] (first compound 0.4 µM, partner dose 0.2 µM) | 225% | 128% | 308% | 56.5% | 124% | 158% | 76.1% | 164% | 166% | 154% | 291% | 86.5% | 248% | 145% | 125% | 165%
C=CCNC1=C2C[C@@H](C)C[C@H](OC)[C@H](O)[C@@H](C)/C=C(\C)[C@H](OC(N)=O)[C@@H](OC)/C=C\C=C(/C)C(=O)NC(=CC1=O)C2=O [Tanespimycin] + NCC(=O)Nc1ccc(-n2nc(C(F)(F)F)cc2-c2ccc3c(ccc4ccccc43)c2)cc1 [OSU03012] (first compound 0.002 µM, partner dose 1 µM) | 102% | 181% | 115% | 46.4% | 144% | 264% | 123% | 392% | 106% | 74.9% | 125% | 43.8% | 90.4% | 122% | 95.6% | 190%
Nc1cccc2c1CN(C1CCC(=O)NC1=O)C2=O (stereo not drawn) [lenalidomide] + O=C(CCCCCCC(=O)Nc1ccccc1)NO [vorinostat] (first compound 1 µM, partner dose 0.08 µM) | 103% | 58.5% | 96.1% | 119% | 118% | 114% | 64.7% | 39% | 174% | 136% | 58.4% | 76.9% | 82.7% | 47% | 98% | 341%

Laid out differently: entries from further up.

| Structure (SMILES) | cleaved PARP positive nuclei fraction [1] | cleaved PARP positive nuclei fraction [2] | cleaved PARP positive nuclei fraction [3] | cleaved PARP positive nuclei fraction [4] | cleaved PARP positive nuclei fraction [5] | cleaved PARP positive nuclei fraction [6] | cleaved PARP positive nuclei fraction [7] | cleaved PARP positive nuclei fraction [8] | cleaved PARP positive nuclei fraction [9] | cleaved PARP positive nuclei fraction [10] | cleaved PARP positive nuclei fraction [11] | cleaved PARP positive nuclei fraction [12] | cleaved PARP positive nuclei fraction [13] | cleaved PARP positive nuclei fraction [14] | cleaved PARP positive nuclei fraction [15] | cleaved PARP positive nuclei fraction [16] |
| --- | --- | --- | --- | --- | --- | --- | --- | --- | --- | --- | --- | --- | --- | --- | --- | --- |
| COCC[n+]1c2c(n(Cc3cnccn3)c1C)C(=O)c1ccccc1C2=O + CC1(C)NC(=O)N(c2ccc([N+](=O)[O-])c(C(F)(F)F)c2)C1=O [nilutamide] (first compound 0.0004 µM, partner dose 1 µM) | 629% | 108% | 90.2% | 38.1% | 173% | 176% | 77% | 533% | 152% | 212% | 199% | 83.6% | 193% | 68.3% | 117% | 222% |
| Nc1cccc2c1CN(C1CCC(=O)NC1=O)C2=O (stereo not drawn) [lenalidomide] + CC(C)(C)c1cnc(CSc2cnc(NC(=O)C3CCNCC3)s2)o1 [SNS-032] (first compound 1 µM, partner dose 0.01 µM) | 109% | 90.4% | 100% | 108% | 96.1% | 137% | 55.7% | 41.3% | 33.5% | 111% | 48.9% | 104% | 108% | 51.5% | 106% | 100% |
| C[C@]1(c2nc3c(C(N)=O)cccc3[nH]2)CCCN1 [Veliparib] + Cn1cncc1[C@@](N)(c1ccc(Cl)cc1)c1ccc2c(c1)c(-c1cccc(Cl)c1)cc(=O)n2C [tipifarnib] (first compound 1.4 µM, partner dose 0.01 µM) | 89.4% | 109% | 90.2% | 251% | 72.3% | 168% | 78.9% | 224% | 205% | 177% | 367% | 70.4% | 119% | 66.5% | 90% | 120% |

Reference: the supplement of paper PMC4604168 (melanoma cell lines)
